Results reported in article PMC4772809, “Network of protein interactions within the Drosophila inner kinetochore” (Open Biology, 2016).
No constants are given. Whether binding was seen depends on the method and setting. Tags and fused reporters may be left off the sequences shown.

Biological target: Nnf1a (yeast two-hybrid fusion) (Drosophila melanogaster)
Test: two-hybrid; Matchmaker Gold, pGAD424 (GAL4 AD) and pGBT9 (GAL4 BD) fusions, mating of Y187-type and Y2H Gold strains or co-transformation of Y2H Gold (mutants); growth on selective plates

B1: CENP-C residues 1–188 (yeast two-hybrid fusion) (domain or fragment, UniProt Q9VHP9 1-188)
chain: MSKPQNNDTLELDDILSQPVKDKERFAAFMMRKLAENKPAQNDNLFGNFKLDFDLDFEVPLIKKSQAKPKSKLPEVQPLGELVSKNSAATEKVNEPPVDQAPNENVPPRRSPTLSPNNRRSMRRSGNVPGSDKLRRHAIRRRSRSCGRQLLPEFEETVNLTRSISSPVNFLPEISSTPCTEKQKEEVA
With B1 as the binder, how does the binding read?
Its binding is “no binding”.
